# These are yes or no findings as the source states them, for the method shown. For some of these results: Binding seen in cells or lysates may run through a third protein. Some binding calls cover weakened binding; strength is not graded here. For some of these results: Where a sequence is shown, tags or fusion partners need not be part of it.
# Chains of the proteins cited; added tags and fusions are not shown. Lines headed by an entry give the natural chain unless they say otherwise; changes in a name come on top. A line that says so, or that is headed by a name, gives the form on record, which may keep a tag or linker. Residues count along the entry.
# UniProt O95983: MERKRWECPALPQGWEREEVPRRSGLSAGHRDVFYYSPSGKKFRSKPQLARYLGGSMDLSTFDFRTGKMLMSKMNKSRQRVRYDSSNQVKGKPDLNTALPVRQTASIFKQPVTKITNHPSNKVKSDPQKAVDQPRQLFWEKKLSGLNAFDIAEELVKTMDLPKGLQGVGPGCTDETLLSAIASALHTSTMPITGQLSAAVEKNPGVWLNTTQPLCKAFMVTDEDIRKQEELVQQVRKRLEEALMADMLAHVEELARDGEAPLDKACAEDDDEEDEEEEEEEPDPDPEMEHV
# MBD domain of MBD3 (residues 1–72), tag-free: residues 1-72 of O95983
# Tests used:
# [1] = target: MBD domain of MBD3 (residues 1–72), tag-free (human) (UniProt O95983); experiment: SEC; purified MBDDE or MBD alone on Superdex 75 10/300 GL against protein standards; both purified
# [2] = target: FLAG-tagged MBD3, full-length (human) (UniProt O95983); experiment: co-IP; FLAG-MBD3 or truncation mutants expressed in 293F cells, 48 h; lysate (0.3% NP-40, Benzonase) on anti-FLAG M2 affinity gel overnight at 4°C, FLAG peptide elution; blot with anti-ADAR1
# [3] = target: MBD domain of MBD3 (residues 1–72), tag-free (human) (UniProt O95983); experiment: SEC; Zα (400 μM) and MBDDE (100 μM), or Zα and MBD under the same conditions, 4:1 molar ratio; 20 mM Tris-HCl pH 7.5, 50 mM NaCl, 1 mM TCEP; Superdex 75 10/300 GL; fractions on SDS-PAGE; both purified
binding [2],Molecule,other results
,"MBD domain of MBD3 (residues 1–72), tag-free (from UniProt O95983-1 1-72) (domain or fragment)",binding [1]: no binding
binds,"ADAR1-p110 (protein, UniProt P55265-5 1-931) MAEIKEKICDYLFNVSDSSALNLAKNIGLTKARDINAVLIDMERQGDVYRQGTTPPIWHLTDKKRERMQIKRNTNSVPETAPAAIPETKRNAEFLTCNIPTSNASNNMVTTEKVENGQEPVIKLENRQEARPEPARLKPPVHYNGPSKAGYVDFENGQWATDDIPDDLNSIRAAPGEFRAIMEMPSFYSHGLPRCSPYKKLTECQLKNPISGLLEYAQFASQTCEFNMIEQSGPPHEPRFKFQVVINGREFPPAEAGSKKVAKQDAAMKAMTILLEEAKAKDSGKSEESSHYSTEKESEKTAESQTPTPSATSFFSGKSPVTTLLECMHKLGNSCEFRLLSKEGPAHEPKFQYCVAVGAQTFPSVSAPSKKVAKQMAAEEAMKALHGEATNSMASDNQPEGMISESLDNLESMMPNKVRKIGELVRYLNTNPVGGLLEYARSHGFAAEFKLVDQSGPPHEPKFVYQAKVGGRWFPAVCAHSKKQGKQEAADAALRVLIGENEKAERMGFTEVTPVTGASLRRTMLLLSRSPEAQPKTLPLTGSTFHDQIAMLSHRCFNTLTNSFQPSLLGRKILAAIIMKKDSEDMGVVVSLGTGNRCVKGDSLSLKGETVNDCHAEIISRRGFIRFLYSELMKYNSQTAKDSIFEPAKGGEKLQIKKTVSFHLYISTAPCGDGALFDKSCSDRAMESTESRHYPVFENPKQGKLRTKVENGEGTIPVESSDIVPTWDGIRLGERLRTMSCSDKILRWNVLGLQGALLTHFLQPIYLKSVTLGYLFSQGHLTRAICCRVTRDGSAFEDGLRHPFIVNHPKVGRVSIYDSKRQSGKTKETSVNWCLADGYDLEILDGTRGTVDGPRNELSRVSKKNIFLLFKKLCSFRYRRDLLRLSYGEAKKAARDYETAKNYFKKGLKDMGYGNWISKPQEEKNFYLCPV",
,"Zα, tag-free (Z-DNA binding domain of human ADAR1, residues 133-209) (domain or fragment, UniProt P55265 133-209) LSIYQDQEQRILKFLEELGEGKATTAHDLSGKLGTPKKEINRVLYSLAKKGKLQKEAGTPPLWKIAVSTQAWNQHSG",binding [3]: no binding (tested: Zα and MBD at a 4:1 molar ratio)
binds,"endogenous ADAR1 (adenosine deaminase acting on RNA), isoform not named in the results (protein, UniProt P55265 1-1226) MNPRQGYSLSGYYTHPFQGYEHRQLRYQQPGPGSSPSSFLLKQIEFLKGQLPEAPVIGKQTPSLPPSLPGLRPRFPVLLASSTRGRQVDIRGVPRGVHLRSQGLQRGFQHPSPRGRSLPQRGVDCLSSHFQELSIYQDQEQRILKFLEELGEGKATTAHDLSGKLGTPKKEINRVLYSLAKKGKLQKEAGTPPLWKIAVSTQAWNQHSGVVRPDGHSQGAPNSDPSLEPEDRNSTSVSEDLLEPFIAVSAQAWNQHSGVVRPDSHSQGSPNSDPGLEPEDSNSTSALEDPLEFLDMAEIKEKICDYLFNVSDSSALNLAKNIGLTKARDINAVLIDMERQGDVYRQGTTPPIWHLTDKKRERMQIKRNTNSVPETAPAAIPETKRNAEFLTCNIPTSNASNNMVTTEKVENGQEPVIKLENRQEARPEPARLKPPVHYNGPSKAGYVDFENGQWATDDIPDDLNSIRAAPGEFRAIMEMPSFYSHGLPRCSPYKKLTECQLKNPISGLLEYAQFASQTCEFNMIEQSGPPHEPRFKFQVVINGREFPPAEAGSKKVAKQDAAMKAMTILLEEAKAKDSGKSEESSHYSTEKESEKTAESQTPTPSATSFFSGKSPVTTLLECMHKLGNSCEFRLLSKEGPAHEPKFQYCVAVGAQTFPSVSAPSKKVAKQMAAEEAMKALHGEATNSMASDNQPEGMISESLDNLESMMPNKVRKIGELVRYLNTNPVGGLLEYARSHGFAAEFKLVDQSGPPHEPKFVYQAKVGGRWFPAVCAHSKKQGKQEAADAALRVLIGENEKAERMGFTEVTPVTGASLRRTMLLLSRSPEAQPKTLPLTGSTFHDQIAMLSHRCFNTLTNSFQPSLLGRKILAAIIMKKDSEDMGVVVSLGTGNRCVKGDSLSLKGETVNDCHAEIISRRGFIRFLYSELMKYNSQTAKDSIFEPAKGGEKLQIKKTVSFHLYISTAPCGDGALFDKSCSDRAMESTESRHYPVFENPKQGKLRTKVENGEGTIPVESSDIVPTWDGIRLGERLRTMSCSDKILRWNVLGLQGALLTHFLQPIYLKSVTLGYLFSQGHLTRAICCRVTRDGSAFEDGLRHPFIVNHPKVGRVSIYDSKRQSGKTKETSVNWCLADGYDLEILDGTRGTVDGPRNELSRVSKKNIFLLFKKLCSFRYRRDLLRLSYGEAKKAARDYETAKNYFKKGLKDMGYGNWISKPQEEKNFYLCPV",

# — article PMC6294567, “The C-terminal D/E-rich domain of MBD3 is a putative Z-DNA mimic that competes for Zα DNA-binding activity” (Nucleic Acids Research, 2018)
